US5132432A, “Chemically reactive pyrenyloxy sulfonic acid dyes” (Molecular Probes, Inc., priority 1989, dated 1992)
Several values for one entry are separate records, joined by “and”; a condition that tells them apart may be missing. Equal entries are not always repeated. Entries after “also recorded” stand apart in the source; their conditions may differ. Where two headings read alike, the source gives them in different places.

Assay: Chemical reactivity with model compounds (TLC or HPLC)

Structure (SMILES): O=C(CCl)NCCNC(=O)COc1cc(S(=O)(=O)O)c2ccc3c(S(=O)(=O)O)cc(S(=O)(=O)O)c4ccc1c2c43 [Compound 6]
- reaction with 2-mercaptoethanol: 2-mercaptoethanol reacts with 6 and 7

Structure (SMILES): O=C(CI)NCCCCCNC(=O)COc1cc(S(=O)(=O)[O-])c2ccc3c(S(=O)(=O)[O-])cc(S(=O)(=O)[O-])c4ccc1c2c43.[Na+].[Na+].[Na+] [Compound 7, N-(1,3,6-Trisulfo-8-pyrenyloxyacetyl)-N'-(iodoacetyl)-1,5-pentanediamine, trisodium salt]
- reaction with 2-mercaptoethanol (trisodium salt): complete conversion of 7 to a new product in the presence of 2-mercaptoethanol and 2-mercaptoethanol reacts with 6 and 7

Structure (SMILES): [N-]=[N+]=NC(=O)COc1cc(S(=O)(=O)[O-])c2ccc3c(S(=O)(=O)[O-])cc(S(=O)(=O)[O-])c4ccc1c2c43.[Na+].[Na+].[Na+] [Compound 9, 1,3,6-Trisulfo-8-pyrenyloxyacetyl azide, trisodium salt]
- reaction with 1-aminobutane: 1-aminobutane reacts to form a new product with 9
- reaction with aminodextran (to give 5): aminodextran reacts with 9 to give 5

Structure (SMILES): NNC(=O)COc1cc(S(=O)(=O)[O-])c2ccc3c(S(=O)(=O)[O-])cc(S(=O)(=O)[O-])c4ccc1c2c43.[Na+].[Na+].[Na+] [Compound 12, 1,3,6-Trisulfo-8-pyrenyloxyacethydrazide, trisodium salt]
- reaction with acetone (trisodium salt): reacted to form a new product in the presence of acetone; also recorded: acetone reacts with 12
